No dose or concentration is given here for some results. Starred links: 1 amine or outer side, 2 acyl side, 3 side chain; linkers in the order of their positions; H or OH if unused. Positions of bridges follow the written chain, without caps; N, C: chain ends. Non-standard residues stand in square brackets, D forms with d. Residues, ends and D or L forms follow the SMILES beside them. *: point of attachment. pTerphenylCO(4''-OnC5H11) = CCCCCOc1ccc(-c2ccc(-c3ccc(C(=O)*)cc3)cc2)cc1; Orn(4R-OH,5R-OH) = O=C([C@H](C[C@@H](O)[C@@H](O)N[*:3])N[*:1])[*:2]; hTyr(3S-OH,4S-OH) = N[C@H](C(=O)O)[C@H](O)[C@@H](O)c1ccc(O)cc1; Pro(3S-OH,4S-Me) = C[C@H]1CN[C@H](C(=O)O)[C@H]1O; Hyp = O=C(O)[C@@H]1C[C@@H](O)CN1
Tested on: Candida spp.
Test: Spontaneous mutant selection, all 5 Candida strains together
Format: cell-based
Conditions: total vs. 5 Candida strains

Structure (SMILES) | spontaneous mutants recovered following selection
CCCCCOc1ccc(-c2ccc(-c3ccc(C(=O)N[C@H]4C[C@@H](O)[C@@H](O)NC(=O)[C@@H]5[C@@H](O)[C@@H](C)CN5C(=O)[C@H]([C@@H](C)O)NC(=O)[C@H]([C@H](O)[C@@H](O)c5ccc(O)cc5)NC(=O)[C@@H]5C[C@@H](O)CN5C(=O)[C@H]([C@@H](C)O)NC4=O)cc3)cc2)cc1 [ANID, anidulafungin] ({pTerphenylCO(4''-OnC5H11)}-[Orn(4R-OH,5R-OH)]T[Hyp][hTyr(3S-OH,4S-OH)]T[Pro(3S-OH,4S-Me)]; lactam 1-C) | 128
CC[C@H](C)C[C@H](C)CCCCCCCCC(=O)N[C@H]1C[C@@H](O)[C@@H](NCCN)NC(=O)[C@@H]2[C@@H](O)CCN2C(=O)[C@H]([C@H](O)CCN)NC(=O)[C@H]([C@H](O)[C@@H](O)c2ccc(O)cc2)NC(=O)[C@@H]2C[C@@H](O)CN2C(=O)[C@H]([C@@H](C)O)NC1=O [CAS, caspofungin] | 281

— patent US20180256673A1, “METHODS FOR TREATING FUNGAL INFECTIONS” (priority 2015, published 2018)
